Test results published in publication PMC10931528.
These are yes or no findings as the source states them, for the method shown. Binding seen in cells or lysates may run through a third protein. Some entries that bind do so weakly or less than the wild type. Where a sequence is shown, tags or fusion partners need not be part of it. Each block holds one binder with its values, some of them ahead of it.

Experiments:
[1] = molecular target: T1, NlpI-His (E. coli), P0AFB1; assay: pull-down; in vivo pull-down in E. coli; plasmid-borne NlpI-His (Para::nlpI-His) as bait; MltD-Flag tested, Prc-HA and MepS as positive controls; details in SI; details: remark: other sources report otherwise
T1 chain: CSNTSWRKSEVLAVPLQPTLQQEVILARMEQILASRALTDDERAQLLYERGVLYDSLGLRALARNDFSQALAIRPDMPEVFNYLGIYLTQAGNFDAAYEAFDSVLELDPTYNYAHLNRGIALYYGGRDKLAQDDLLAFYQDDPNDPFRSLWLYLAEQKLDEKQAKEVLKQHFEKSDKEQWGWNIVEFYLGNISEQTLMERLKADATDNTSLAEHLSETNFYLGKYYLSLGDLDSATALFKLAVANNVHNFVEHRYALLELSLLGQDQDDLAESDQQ

NlpI-His (E. coli) = NlpI-His (E. coli) (UniProt P0AFB1); assay: as above

- binding [1]: no binding
B1: MltD-Flag, P0AEZ7 16-452 (enzyme)
chain: CQSTGNVQQHAQSLSAAGQGEAAKFTSQARWMDDGTSIAPDGDLWAFIGDELKMGIPENDRIREQKQKYLRNKSYLHDVTLRAEPYMYWIAGQVKKRNMPMELVLLPIVESAFDPHATSGANAAGIWQIIPSTGRNYGLKQTRNYDARRDVVASTTAALNMMQRLNKMFDGDWLLTVAAYNSGEGRVMKAIKTNKARGKSTDFWSLPLPQETKQYVPKMLALSDILKNSKRYGVRLPTTDESRALARVHLSSPVEMAKVADMAGISVSKLKTFNAGVKGSTLGASGPQYVMVPKKHADQLRESLASGEIAAVQSTLVADNTPLNSRVYTVRSGDTLSSIASRLGVSTKDLQQWNKLRGSKLKPGQSLTIGAGSSAQRLANNSDSITYRVRKGDSLSSIAKRHGVNIKDVMRWNSDTANLQPGDKLTLFVKNNNMPDS

- binding (NlpI-His (E. coli)): binds
B2: Prc-HA (enzyme, UniProt P23865 23-682)
chain: VEDITRADQIPVLKEETQHATVSERVTSRFTRSHYRQFDLDQAFSAKIFDRYLNLLDYSHNVLLASDVEQFAKKKTELGDELRSGKLDVFYDLYNLAQKRRFERYQYALSVLEKPMDFTGNDTYNLDRSKAPWPKNEAELNALWDSKVKFDELSLKLTGKTDKEIRETLTRRYKFAIRRLAQTNSEDVFSLAMTAFAREIDPHTNYLSPRNTEQFNTEMSLSLEGIGAVLQMDDDYTVINSMVAGGPAAKSKAISVGDKIVGVGQTGKPMVDVIGWRLDDVVALIKGPKGSKVRLEILPAGKGTKTRTVTLTRERIRLEDRAVKMSVKTVGKEKVGVLDIPGFYVGLTDDVKVQLQKLEKQNVSSVIIDLRSNGGGALTEAVSLSGLFIPAGPIVQVRDNNGKVREDSDTDGQVFYKGPLVVLVDRFSASASEIFAAAMQDYGRALVVGEPTFGKGTVQQYRSLNRIYDQMLRPEWPALGSVQYTIQKFYRVNGGSTQRKGVTPDIIMPTGNEETETGEKFEDNALPWDSIDAATYVKSGDLTAFEPELLKEHNARIAKDPEFQNIMKDIARFNAMKDKRNIVSLNYAVREKENNEDDATRLARLNERFKREGKPELKKLDDLPKDYQEPDPYLDETVNIALDLAKLEKARPAEQPAPVK

- binding (NlpI-His (E. coli)): binds
B3: MepS (enzyme, UniProt P0AFV4 27-188)
chain: CSANNTAKNMHPETRAVGSETSSLQASQDEFENLVRNVDVKSRIMDQYADWKGVRYRLGGSTKKGIDCSGFVQRTFREQFGLELPRSTYEQQEMGKSVSRSNLRTGDLVLFRAGSTGRHVGIYIGNNQFVHASTSSGVIISSMNEPYWKKRYNEARRVLSRS
